Data as given in PubChem BioAssay AID1508597 (Cure First, 2020).
Test: 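Knock-downs altering ovarian cancer cell survival with or without PARP inhibitor rucaparib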 (primary screen). Cells: human ovarian carcinoma lines grown from tumours: OCI-P5x (papillary serous) and OCI-C5x (clear cell). Knock-down reagent: siRNA pool against human genes, 1.25 pmol siRNA per well. Timing: 72 h or 96 h, depending on the cell culture. Conditions: rucaparib 20 µM (about IC30) or vehicle, present until read-out. Rucaparib or vehicle: Vehicle. Cell line: OCI-C5x (clear cell). Detection: 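Luminescent ATP-based viability assay read 72 or 96 h after transfection, depending on culture, given as normalised percent viability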. Scale: viability, normalised: higher = more viable cells remaining. Hit rule: 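Active when normalised viability falls below 80 percent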. Meaning of the calls: active = viability under 80%; inactive = viability 80% or more.
Shown is an unselected part of the about 2,100 reagents, in one setting of the screen. 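Calls flag viability under 80% in either arm, not effects specific to rucaparib; the reference for percent is not stated.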 Some reagents were tested in more than one well and are listed for each. The record does not give: the 100% reference.

SIRT6, technical replicate 1 → viability, normalised (%): 42.2; call: active
SIRT6, technical replicate 1 → viability, normalised (%): 62.5; call: active
SIRT6, technical replicate 2 → viability, normalised (%): 28; call: active
SIRT6, technical replicate 2 → viability, normalised (%): 66.5; call: active
SIRT6, technical replicate 3 → viability, normalised (%): 43.7; call: active
SIRT6, technical replicate 3 → viability, normalised (%): 53; call: active
PRDM2, technical replicate 1 → viability, normalised (%): 39.5; call: active
PRDM2, technical replicate 2 → viability, normalised (%): 47.1; call: active
PRDM2, technical replicate 3 → viability, normalised (%): 36.7; call: active
LCK, technical replicate 1 → viability, normalised (%): 65; call: active
LCK, technical replicate 2 → viability, normalised (%): 72.3; call: active
LCK, technical replicate 3 → viability, normalised (%): 64.2; call: active

Taken from above:
Under “viability, normalised (%)”, LCK, technical replicate 1 is entered as 65
Value of LCK, technical replicate 3 under “call”: active

The listing continues.
TH, technical replicate 1 → viability, normalised (%): 40.9; call: active
TH, technical replicate 2 → viability, normalised (%): 59.7; call: active
TH, technical replicate 3 → viability, normalised (%): 54.7; call: active
PER1, technical replicate 1 → viability, normalised (%): 53.1; call: active
PER1, technical replicate 1 → viability, normalised (%): 47.8; call: active
PER1, technical replicate 2 → viability, normalised (%): 32.1; call: active
PER1, technical replicate 2 → viability, normalised (%): 45; call: active
PER1, technical replicate 3 → viability, normalised (%): 37.4; call: active
PER1, technical replicate 3 → viability, normalised (%): 54.7; call: active
CTSD, technical replicate 1 → viability, normalised (%): 55.5; call: active
CTSD, technical replicate 2 → viability, normalised (%): 48; call: active
CTSD, technical replicate 3 → viability, normalised (%): 53; call: active
GALK2, technical replicate 1 → viability, normalised (%): 48.1; call: active
GALK2, technical replicate 2 → viability, normalised (%): 71.2; call: active
GALK2, technical replicate 3 → viability, normalised (%): 56.5; call: active
KMT2E, technical replicate 1 → viability, normalised (%): 56.4; call: active
KMT2E, technical replicate 2 → viability, normalised (%): 65.8; call: active
KMT2E, technical replicate 3 → viability, normalised (%): 68.5; call: active
CDKL4, technical replicate 1 → viability, normalised (%): 42; call: active
CDKL4, technical replicate 2 → viability, normalised (%): 56.3; call: active
CDKL4, technical replicate 3 → viability, normalised (%): 65.4; call: active
